# For at least one compound, name, drawing or mass did not settle the structure.
# Legend:
# [1] = Phase V, mice, i.p.
# [2] = assay type: in vivo; settings: Phase V, mice, i.p.
# [3] = Time of peak effect (TPE) over several tests in mice; settings: i.p.
# [4] = Time of peak effect (TPE) over several tests in rats; settings: p.o., Compound 9: toxicity, MES and sc Met tests
# [5] = Phase V, mice, i.p.; remark: listed apart in the source
compound,measurement,setting,value
"CCCC(CCC)C(=O)O [Valproate, valproate]",effectiveness by the sc Pic test,[1],"effective against sc Met, sc Bic, and sc Pic in nontoxic doses"
same,effectiveness by the sc Strych test,[2],effective against strychnine; valproate in nontoxic doses
same,TPE by all tests,[3],one-fourth
same,TPE,[4],one-half
same,effectiveness by the sc Bic test,[5],"effective against sc Met, sc Bic, and sc Pic in nontoxic doses"
